Laboratory results as given in publication PMC8532385.
These are yes or no findings as the source states them, for the method shown. In cells and extracts the contact can be indirect. Some results given as binding are weak or reduced against the parent protein; the word gives no strength. Sequences can lack the tags named with a protein.

The chains behind the UniProt entries cited, without tags or fusion partners.
UniProt O00429: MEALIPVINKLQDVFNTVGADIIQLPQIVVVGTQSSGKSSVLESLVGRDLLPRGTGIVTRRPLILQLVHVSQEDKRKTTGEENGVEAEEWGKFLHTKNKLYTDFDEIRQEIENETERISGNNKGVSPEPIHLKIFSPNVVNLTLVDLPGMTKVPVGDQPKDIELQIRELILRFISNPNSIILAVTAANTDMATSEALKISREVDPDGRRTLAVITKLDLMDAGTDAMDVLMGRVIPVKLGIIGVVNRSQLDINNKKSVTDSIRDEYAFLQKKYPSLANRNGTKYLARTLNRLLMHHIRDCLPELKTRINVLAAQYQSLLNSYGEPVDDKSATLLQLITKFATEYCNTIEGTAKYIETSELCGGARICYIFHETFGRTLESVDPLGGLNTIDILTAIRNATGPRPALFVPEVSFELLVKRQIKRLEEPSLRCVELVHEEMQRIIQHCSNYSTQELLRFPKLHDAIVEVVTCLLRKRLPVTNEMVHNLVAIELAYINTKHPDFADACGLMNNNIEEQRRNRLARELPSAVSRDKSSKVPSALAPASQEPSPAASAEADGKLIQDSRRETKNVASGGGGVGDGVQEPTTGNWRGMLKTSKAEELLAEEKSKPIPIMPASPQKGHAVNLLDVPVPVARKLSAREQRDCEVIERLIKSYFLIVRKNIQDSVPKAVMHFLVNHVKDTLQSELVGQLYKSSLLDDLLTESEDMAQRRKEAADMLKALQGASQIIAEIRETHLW

Tests used:
Assay in all cases: co-IP; 293T cells transfected with V5-tagged MIEF1, MIEF2 or deletion mutants, in vivo crosslinked with 1% formaldehyde (10 min, room temperature), lysed in 1% NP-40 with sonication; anti-V5 agarose beads 2 h at room temperature; Western blot of endogenous partners
[1] = molecular target: T1, MIEF1^Δ109-154 (V5-tagged, self-association-deficient mutant) (human) (UniProt Q9NQG6)
T1 sequence: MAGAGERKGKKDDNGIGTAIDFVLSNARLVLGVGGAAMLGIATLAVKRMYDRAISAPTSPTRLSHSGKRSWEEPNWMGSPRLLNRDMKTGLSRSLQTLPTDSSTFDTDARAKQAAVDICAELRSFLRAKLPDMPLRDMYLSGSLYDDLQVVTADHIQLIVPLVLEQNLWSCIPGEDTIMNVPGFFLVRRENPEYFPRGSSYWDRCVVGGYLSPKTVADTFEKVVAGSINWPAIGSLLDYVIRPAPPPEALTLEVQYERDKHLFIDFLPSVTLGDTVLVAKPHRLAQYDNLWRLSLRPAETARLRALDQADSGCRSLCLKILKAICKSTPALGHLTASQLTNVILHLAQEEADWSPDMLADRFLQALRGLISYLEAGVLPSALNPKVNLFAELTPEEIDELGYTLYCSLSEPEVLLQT

[2] = molecular target: T2, MIEF1^Δ173-216 (V5-tagged) (human) (UniProt Q9NQG6)
T2 sequence: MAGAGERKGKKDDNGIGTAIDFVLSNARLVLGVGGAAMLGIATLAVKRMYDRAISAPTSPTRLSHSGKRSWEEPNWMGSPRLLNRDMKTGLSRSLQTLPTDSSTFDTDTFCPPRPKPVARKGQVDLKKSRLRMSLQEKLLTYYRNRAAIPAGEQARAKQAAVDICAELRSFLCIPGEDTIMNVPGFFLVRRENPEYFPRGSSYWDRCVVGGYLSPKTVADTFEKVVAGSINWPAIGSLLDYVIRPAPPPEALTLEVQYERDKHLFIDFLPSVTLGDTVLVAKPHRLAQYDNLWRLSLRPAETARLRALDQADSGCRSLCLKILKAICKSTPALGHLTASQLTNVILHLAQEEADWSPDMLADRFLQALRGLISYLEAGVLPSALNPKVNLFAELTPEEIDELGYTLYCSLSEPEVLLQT

[3] = molecular target: T3, MIEF1^Δ345-380 (V5-tagged) (human) (UniProt Q9NQG6)
T3 sequence: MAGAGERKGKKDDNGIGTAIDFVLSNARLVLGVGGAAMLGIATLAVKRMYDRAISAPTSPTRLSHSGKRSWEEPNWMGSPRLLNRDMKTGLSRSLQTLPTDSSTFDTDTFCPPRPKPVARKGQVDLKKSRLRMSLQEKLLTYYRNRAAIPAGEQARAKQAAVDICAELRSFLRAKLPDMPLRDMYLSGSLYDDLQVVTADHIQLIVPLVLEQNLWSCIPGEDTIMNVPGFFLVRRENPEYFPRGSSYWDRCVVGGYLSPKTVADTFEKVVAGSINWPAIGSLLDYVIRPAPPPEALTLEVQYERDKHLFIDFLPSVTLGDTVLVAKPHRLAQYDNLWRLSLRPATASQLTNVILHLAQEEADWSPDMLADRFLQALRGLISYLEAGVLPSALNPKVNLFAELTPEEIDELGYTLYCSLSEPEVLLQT

[4] = molecular target: T4, MIEF2^Δ425-454 (V5-tagged) (human) (UniProt Q96C03)
T4 sequence: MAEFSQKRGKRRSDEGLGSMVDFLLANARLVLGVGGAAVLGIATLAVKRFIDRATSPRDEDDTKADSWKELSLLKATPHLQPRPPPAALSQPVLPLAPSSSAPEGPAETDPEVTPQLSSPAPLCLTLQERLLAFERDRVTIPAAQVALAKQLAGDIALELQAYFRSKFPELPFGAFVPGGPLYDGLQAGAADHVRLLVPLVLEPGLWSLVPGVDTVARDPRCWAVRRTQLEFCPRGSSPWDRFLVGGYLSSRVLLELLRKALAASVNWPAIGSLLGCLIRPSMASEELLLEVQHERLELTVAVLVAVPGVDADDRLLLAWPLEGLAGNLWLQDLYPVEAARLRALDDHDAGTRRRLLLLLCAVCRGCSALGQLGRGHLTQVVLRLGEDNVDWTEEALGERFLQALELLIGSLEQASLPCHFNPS

[5] = molecular target: T5, MIEF2^Δ151-160-V5 (Drp1 binding-deficient mutant) (human) (UniProt Q96C03)
T5 sequence: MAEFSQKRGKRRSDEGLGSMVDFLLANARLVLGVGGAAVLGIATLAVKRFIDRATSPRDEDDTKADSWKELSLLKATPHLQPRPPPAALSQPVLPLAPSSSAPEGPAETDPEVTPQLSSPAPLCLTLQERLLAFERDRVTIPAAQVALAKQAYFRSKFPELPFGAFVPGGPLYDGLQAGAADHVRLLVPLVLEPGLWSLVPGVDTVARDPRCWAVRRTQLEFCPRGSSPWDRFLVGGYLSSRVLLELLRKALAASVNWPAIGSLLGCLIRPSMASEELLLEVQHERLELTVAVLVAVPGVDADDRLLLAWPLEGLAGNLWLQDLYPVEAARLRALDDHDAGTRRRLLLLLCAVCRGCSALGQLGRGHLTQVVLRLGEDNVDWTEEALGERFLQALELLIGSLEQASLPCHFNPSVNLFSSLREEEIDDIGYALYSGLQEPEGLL

dynamin-related protein 1 (Drp1), endogenous (from UniProt O00429 1-736)
binding [1]: binds
binding [2]: no binding
binding [3]: no binding
binding [4]: binds
binding [5]: no binding
